In the supplement of paper PMC10849652:
Some of the results follow.

Protein sequences, listed by entry. Tags and fused reporters are not part of them. Lines headed by an entry give the natural chain unless they say otherwise; changes in a name come on top.
UniProt Q96GE9: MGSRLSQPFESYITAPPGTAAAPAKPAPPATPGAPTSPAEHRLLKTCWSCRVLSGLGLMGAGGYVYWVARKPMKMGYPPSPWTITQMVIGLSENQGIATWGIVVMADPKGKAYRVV
UniProt Q5T7M9: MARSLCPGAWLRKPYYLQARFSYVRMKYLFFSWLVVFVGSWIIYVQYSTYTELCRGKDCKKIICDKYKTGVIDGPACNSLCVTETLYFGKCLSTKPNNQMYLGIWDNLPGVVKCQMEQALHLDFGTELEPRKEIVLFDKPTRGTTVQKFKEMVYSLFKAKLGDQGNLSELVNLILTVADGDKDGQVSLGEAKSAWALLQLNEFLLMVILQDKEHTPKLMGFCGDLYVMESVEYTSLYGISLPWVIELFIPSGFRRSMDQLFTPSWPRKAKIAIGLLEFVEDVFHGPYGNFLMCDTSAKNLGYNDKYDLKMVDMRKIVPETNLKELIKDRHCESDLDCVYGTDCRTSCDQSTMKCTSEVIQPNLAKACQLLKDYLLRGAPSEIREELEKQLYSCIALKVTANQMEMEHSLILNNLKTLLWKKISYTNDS
UniProt P23743: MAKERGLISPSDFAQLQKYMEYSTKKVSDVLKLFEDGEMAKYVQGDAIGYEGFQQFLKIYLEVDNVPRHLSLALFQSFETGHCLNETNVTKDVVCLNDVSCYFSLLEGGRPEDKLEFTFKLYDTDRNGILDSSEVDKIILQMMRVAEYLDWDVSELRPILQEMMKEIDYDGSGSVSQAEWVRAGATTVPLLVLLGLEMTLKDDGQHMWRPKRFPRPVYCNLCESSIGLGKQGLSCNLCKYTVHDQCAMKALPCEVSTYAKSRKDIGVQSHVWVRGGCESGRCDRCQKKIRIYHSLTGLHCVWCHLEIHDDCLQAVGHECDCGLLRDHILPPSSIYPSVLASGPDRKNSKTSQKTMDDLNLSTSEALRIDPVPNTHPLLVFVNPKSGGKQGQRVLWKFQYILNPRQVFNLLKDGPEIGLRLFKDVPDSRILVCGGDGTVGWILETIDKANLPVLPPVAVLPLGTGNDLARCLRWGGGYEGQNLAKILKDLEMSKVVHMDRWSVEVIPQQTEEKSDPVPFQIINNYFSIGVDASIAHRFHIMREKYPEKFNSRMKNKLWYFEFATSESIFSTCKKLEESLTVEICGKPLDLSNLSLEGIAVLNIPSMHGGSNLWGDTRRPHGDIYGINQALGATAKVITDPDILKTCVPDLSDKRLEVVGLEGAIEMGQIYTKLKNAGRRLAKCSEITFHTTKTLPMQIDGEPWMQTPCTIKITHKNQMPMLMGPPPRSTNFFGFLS
UniProt Q8TDM6: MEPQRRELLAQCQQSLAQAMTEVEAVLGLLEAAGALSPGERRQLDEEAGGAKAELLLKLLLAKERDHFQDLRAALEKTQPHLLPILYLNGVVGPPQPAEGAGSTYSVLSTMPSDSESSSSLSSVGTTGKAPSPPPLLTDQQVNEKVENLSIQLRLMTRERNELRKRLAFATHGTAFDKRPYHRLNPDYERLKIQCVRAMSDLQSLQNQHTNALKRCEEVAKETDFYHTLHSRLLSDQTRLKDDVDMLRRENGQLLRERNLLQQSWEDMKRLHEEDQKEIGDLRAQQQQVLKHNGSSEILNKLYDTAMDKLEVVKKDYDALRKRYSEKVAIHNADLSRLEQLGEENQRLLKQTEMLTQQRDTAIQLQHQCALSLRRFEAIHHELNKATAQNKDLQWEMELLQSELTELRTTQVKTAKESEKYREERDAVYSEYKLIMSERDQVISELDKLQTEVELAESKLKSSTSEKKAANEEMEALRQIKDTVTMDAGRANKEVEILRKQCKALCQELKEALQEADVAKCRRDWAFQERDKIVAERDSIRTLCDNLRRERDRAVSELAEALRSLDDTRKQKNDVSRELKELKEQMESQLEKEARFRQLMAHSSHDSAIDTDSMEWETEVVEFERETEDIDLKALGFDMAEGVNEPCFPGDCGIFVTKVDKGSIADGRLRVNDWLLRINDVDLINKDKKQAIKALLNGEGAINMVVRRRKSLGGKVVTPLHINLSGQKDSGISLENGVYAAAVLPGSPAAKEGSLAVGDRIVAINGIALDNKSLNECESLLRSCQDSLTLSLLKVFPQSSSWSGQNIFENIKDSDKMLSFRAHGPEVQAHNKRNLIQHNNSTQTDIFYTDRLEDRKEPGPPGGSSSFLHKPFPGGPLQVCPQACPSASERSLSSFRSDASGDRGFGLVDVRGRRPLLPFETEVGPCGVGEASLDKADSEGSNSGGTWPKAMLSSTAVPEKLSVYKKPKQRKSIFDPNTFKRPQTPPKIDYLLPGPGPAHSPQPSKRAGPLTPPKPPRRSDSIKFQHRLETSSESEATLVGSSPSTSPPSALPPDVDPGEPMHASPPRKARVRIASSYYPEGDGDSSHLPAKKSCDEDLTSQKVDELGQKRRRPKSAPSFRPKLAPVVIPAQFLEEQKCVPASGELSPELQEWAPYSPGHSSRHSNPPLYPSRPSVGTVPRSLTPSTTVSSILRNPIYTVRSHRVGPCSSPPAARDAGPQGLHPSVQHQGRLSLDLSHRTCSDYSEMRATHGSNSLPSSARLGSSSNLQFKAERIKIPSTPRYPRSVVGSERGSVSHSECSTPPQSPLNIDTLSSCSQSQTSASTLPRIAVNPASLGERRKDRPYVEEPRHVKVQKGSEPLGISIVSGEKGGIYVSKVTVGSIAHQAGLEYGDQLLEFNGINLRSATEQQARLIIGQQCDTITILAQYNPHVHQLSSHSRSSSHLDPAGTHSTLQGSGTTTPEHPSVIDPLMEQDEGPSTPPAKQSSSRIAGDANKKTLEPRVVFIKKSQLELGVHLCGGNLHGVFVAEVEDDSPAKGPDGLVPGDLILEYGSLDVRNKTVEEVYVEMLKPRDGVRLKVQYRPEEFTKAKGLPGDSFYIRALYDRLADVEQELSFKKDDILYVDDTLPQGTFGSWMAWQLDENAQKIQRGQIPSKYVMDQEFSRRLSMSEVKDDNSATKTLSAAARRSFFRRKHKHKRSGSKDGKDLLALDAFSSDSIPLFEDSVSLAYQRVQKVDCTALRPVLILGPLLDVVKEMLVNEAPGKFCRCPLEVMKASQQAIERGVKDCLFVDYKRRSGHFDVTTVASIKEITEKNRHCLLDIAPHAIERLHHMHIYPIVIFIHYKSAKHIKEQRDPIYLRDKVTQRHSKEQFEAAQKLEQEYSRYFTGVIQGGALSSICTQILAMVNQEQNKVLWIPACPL
UniProt Q9Y3R5: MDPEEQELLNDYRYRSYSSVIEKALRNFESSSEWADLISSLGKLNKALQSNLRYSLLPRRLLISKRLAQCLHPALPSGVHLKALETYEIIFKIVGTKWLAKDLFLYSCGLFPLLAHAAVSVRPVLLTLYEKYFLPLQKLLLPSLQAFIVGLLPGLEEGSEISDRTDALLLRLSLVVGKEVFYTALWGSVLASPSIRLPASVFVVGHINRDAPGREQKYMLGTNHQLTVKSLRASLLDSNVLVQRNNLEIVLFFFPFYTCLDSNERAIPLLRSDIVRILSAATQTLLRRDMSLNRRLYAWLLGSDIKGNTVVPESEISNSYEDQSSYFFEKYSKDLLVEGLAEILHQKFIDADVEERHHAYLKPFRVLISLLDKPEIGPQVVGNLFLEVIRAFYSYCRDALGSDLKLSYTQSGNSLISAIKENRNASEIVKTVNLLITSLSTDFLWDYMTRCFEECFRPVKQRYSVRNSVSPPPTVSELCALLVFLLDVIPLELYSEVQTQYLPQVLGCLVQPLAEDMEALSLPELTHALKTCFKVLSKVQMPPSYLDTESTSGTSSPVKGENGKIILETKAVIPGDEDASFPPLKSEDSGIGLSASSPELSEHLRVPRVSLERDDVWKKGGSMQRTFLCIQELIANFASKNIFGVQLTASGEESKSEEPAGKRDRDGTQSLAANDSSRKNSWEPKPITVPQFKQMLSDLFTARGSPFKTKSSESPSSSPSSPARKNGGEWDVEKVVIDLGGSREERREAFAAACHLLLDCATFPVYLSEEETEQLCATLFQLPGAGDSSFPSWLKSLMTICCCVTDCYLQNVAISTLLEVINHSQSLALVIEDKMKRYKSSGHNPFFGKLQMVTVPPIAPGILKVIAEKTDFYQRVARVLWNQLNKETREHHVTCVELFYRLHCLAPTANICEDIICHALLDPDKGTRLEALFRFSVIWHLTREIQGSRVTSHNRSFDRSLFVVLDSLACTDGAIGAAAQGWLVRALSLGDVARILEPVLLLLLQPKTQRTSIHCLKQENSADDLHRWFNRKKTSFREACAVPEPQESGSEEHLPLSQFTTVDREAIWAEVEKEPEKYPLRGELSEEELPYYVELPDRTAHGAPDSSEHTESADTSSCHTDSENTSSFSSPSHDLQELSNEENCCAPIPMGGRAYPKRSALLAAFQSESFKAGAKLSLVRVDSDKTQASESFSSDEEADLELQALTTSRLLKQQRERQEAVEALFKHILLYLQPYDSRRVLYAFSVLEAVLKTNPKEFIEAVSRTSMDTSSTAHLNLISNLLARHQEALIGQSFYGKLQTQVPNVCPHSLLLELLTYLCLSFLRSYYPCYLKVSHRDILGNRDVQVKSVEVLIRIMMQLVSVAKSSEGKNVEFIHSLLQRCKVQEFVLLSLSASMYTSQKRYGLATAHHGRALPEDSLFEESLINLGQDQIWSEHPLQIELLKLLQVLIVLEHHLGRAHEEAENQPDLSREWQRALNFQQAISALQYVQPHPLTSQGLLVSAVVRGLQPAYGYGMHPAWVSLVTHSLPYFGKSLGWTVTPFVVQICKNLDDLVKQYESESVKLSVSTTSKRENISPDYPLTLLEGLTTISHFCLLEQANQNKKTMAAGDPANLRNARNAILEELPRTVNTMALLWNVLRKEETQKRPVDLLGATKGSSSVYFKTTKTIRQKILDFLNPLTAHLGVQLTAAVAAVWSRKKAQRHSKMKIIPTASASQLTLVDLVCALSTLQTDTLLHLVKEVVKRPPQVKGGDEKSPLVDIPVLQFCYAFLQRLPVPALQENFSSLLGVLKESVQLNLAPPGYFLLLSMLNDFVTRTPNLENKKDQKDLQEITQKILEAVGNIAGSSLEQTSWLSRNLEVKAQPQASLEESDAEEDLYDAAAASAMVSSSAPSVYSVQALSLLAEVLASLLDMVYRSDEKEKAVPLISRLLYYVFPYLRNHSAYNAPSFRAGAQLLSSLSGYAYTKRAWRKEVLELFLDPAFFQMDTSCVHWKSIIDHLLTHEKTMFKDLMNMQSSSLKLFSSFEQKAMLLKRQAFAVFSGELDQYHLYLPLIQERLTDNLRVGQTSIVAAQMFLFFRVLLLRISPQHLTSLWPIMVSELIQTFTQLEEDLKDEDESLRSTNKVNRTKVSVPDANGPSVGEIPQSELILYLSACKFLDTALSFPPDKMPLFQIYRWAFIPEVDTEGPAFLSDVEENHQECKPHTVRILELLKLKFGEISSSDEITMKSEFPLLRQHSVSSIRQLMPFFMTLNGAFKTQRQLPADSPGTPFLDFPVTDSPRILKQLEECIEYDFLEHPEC
UniProt P50570: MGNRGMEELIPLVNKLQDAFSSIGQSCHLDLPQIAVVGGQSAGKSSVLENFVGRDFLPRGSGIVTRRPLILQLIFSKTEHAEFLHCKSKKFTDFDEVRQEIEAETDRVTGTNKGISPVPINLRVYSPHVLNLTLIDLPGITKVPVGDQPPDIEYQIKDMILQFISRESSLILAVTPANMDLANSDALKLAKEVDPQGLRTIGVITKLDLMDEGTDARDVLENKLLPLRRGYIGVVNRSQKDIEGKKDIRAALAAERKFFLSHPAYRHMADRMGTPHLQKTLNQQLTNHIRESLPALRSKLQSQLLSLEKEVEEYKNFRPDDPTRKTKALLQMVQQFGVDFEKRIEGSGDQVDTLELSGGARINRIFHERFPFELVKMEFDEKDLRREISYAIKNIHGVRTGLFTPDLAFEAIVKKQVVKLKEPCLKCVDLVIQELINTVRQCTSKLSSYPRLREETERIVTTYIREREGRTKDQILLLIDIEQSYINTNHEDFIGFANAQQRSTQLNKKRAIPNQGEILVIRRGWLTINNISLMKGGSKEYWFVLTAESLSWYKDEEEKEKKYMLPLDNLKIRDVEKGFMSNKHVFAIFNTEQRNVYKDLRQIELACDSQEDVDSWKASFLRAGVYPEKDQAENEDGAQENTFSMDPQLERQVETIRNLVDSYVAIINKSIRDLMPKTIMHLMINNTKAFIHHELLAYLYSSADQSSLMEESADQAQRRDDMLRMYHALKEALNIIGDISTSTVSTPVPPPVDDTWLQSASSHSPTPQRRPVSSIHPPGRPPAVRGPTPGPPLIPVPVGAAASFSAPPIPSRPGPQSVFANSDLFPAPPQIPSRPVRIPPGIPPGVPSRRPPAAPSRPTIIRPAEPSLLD
UniProt Q5SXM8: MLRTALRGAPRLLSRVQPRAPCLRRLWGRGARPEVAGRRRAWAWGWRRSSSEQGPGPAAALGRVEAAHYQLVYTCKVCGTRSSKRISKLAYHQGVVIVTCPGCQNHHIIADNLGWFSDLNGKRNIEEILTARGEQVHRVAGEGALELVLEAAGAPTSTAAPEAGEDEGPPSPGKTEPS

Columns and labels:
Assay in all cases: log2 fold change, soluble protein after heating vs DMSO (PISA); higher = thermal stabilisation; K562 lysate, 10 uM; active = over 0.2 and 3.5 SD of the protein, either way, in both replicates (recomputed)
[1] = compound: C/C(=N\NC(=O)C1=CC(=CC=C1)S(=O)(=O)N2CCOCC2)/C3=C(C=CC(=C3)Cl)O
Outline: (§1)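 Values give the log-two fold change in thermal stability against solvent controls, from duplicates. Crude K562 extract at 1 mg/mL protein, made by dounce homogenisation in PBS pH 7.4 with 1 mM MgCl2, was treated with 10 μM compound for 30 min. After 3 min heating across 48°C-58°C, aliquots were pooled, adjusted to 0.5% NP-40 at 4°C and centrifuged at 21,000xg for 90 min. The supernatant was measured by TMTpro 16plex LC-MS/MS with channel sums equalised.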

[2] = compound: C1=CC2=C(C=CC(=C2)/C=C\3/C(=O)NC(=NCC4=CC=CS4)S3)N=C1
Outline: as §1

[3] = compound: C1=CC=C(C=C1)C2=NC(=C(N2)C3=CC=NC=C3)C4=CC(=C(C=C4)Cl)O
Outline: as §1

[4] = compound: C1=CC=C2C(=C1)C3=NNC4=CC=CC(=C43)C2=O
Outline: as §1

IRAK-1-4 Inhibitor I = compound: C1COCCN1CCN2C3=CC=CC=C3N=C2NC(=O)C4=CC(=CC=C4)[N+](=O)[O-] [IRAK-1-4 Inhibitor I]
Outline: as §1

ralimetinib = compound: CC(C)(C)Cn1c(N)nc2ccc(-c3[nH]c(C(C)(C)C)nc3-c3ccc(F)cc3)nc21 [ralimetinib]
Outline: as §1

[5] = compound: CC(C)(O)CC(=O)NCCn1ccc2ncnc(Nc3ccc(Oc4cccc(C(F)(F)F)c4)c(Cl)c3)c21
Outline: as §1

[6] = compound: CC1=C(C=C(C=C1)NC(=O)C2=CC(=CC=C2)N(C)C)NC(=O)C3=CC=C(C=C3)O
Outline: as §1

[7] = compound: C1=CC2=NC=CN=C2C=C1/C=C/3\C(=O)NC(=O)S3
Outline: as §1

ibrutinib = compound: C=CC(=O)N1CCC[C@@H](n2nc(-c3ccc(Oc4ccccc4)cc3)c3c(N)ncnc32)C1 [ibrutinib]
Outline: as §1

[8] = compound: CC1=C(C2=C(C=C1)C(=O)C3=CC=CC=C3N2CCCN)C
Outline: as §1

[9] = compound: C1CCN(C1)C(=O)NC2=CC=CC(=C2)NC3=NC=C(C(=N3)NCCC4=CN=CN4)Br
Outline: as §1

[10] = compound: C1CN(CCC1(CC2=CC=C(C=C2)Cl)N)C3=NC=NC4=C3C=CN4
Outline: as §1

erlotinib = compound: C#Cc1cccc(Nc2ncnc3cc(OCCOC)c(OCCOC)cc23)c1 [erlotinib]
Outline: as §1

[11] = compound: C1=CC(=CC=C1C2=NC3=C(N2)C=C(C=C3)C(=O)N)OC4=CC=C(C=C4)Cl
Outline: as §1

[12] = compound: CC(C)C1=C2N=C(C=C(N2N=C1)NCC3=CC=CC=C3)NCCCCCCN
Outline: as §1

[13] = compound: CC(=O)c1cnc2ccc(-c3cc(Cl)c(O)c(Cl)c3)nc2c1N[C@H]1CC[C@H](CN(C)C)CC1
Outline: as §1

[14] = compound: CC1=CC=C(C=C1)SC2=C3C=C(SC3=CN=C2)C(=O)N
Outline: as §1

[15] = compound: CC1=C(C(CC(=O)N1)C2=CC=C(C=C2)C(F)(F)F)C(=O)NC3=C(C=C4C(=C3)C=NN4)F
Outline: as §1

[16] = compound: CC1=C(C=C(C=C1)NC(=O)C2=CC(=CC=C2)C(C)(C)C#N)NC3=CC4=C(C=C3)N=CN(C4=O)C
Outline: as §1

Measured: log2 fold change

DMAC1 (UniProt Q96GE9)
inactive: [1] 0.025 | [2] 0.056 | [3] -0.088 | [4] -0.18 | IRAK-1-4 Inhibitor I -0.041 | ralimetinib 0.064 | [5] -0.19 | [6] 0.205

DNAH12 (UniProt Q6ZR08)
inactive: [1] 0.112 | [2] -0.041 | [7] -0.089 | [4] -0.101 | ibrutinib -0.106 | [8] 0.367

DNAJC14 (UniProt Q6Y2X3)
inactive: [3] -0.089 | [9] 0.275 | [10] 0.054 | IRAK-1-4 Inhibitor I 0.106 | ralimetinib 0.096 | [5] -0.12 | [8] -0.024 | [6] 0.035

DOCK6 (UniProt Q96HP0)
inactive: erlotinib 0.179 | [11] 0.057 | [12] -0.197 | [8] -0.243

DOK2 (UniProt O60496)
inactive: erlotinib 0.105 | [11] -0.081 | [3] 0.067 | IRAK-1-4 Inhibitor I 0.196 | [13] 0.187 | ralimetinib 0.048 | [5] -0.254 | [12] 0.103 | [6] 0.076 | [14] -0.043

DNMT3A (UniProt Q9Y6K1)
inactive: erlotinib -0.055 | [11] 0.103 | [13] -0.309 | [12] -0.021 | [14] -0.106

DLX2 (UniProt Q07687)
inactive: erlotinib 0.154 | [11] 0.109 | [3] -0.08 | IRAK-1-4 Inhibitor I 0.129 | ralimetinib 0.036 | [5] -0.013 | [12] 0.021 | [6] 0.106

DIPK1A (UniProt Q5T7M9)
inactive: [9] 0.039 | [10] -0.059

DGKA (UniProt P23743)
inactive: [1] -0.177 | [2] 0.018 | [7] 0.022 | [3] 0.429 | [4] -0.099 | [9] 0.022 | [10] 0.021 | IRAK-1-4 Inhibitor I -0.364 | ibrutinib 0.159 | [13] 0.01 | ralimetinib -0.042 | [5] 0.383 | [15] 0.036 | [8] -0.233 | [6] -0.605 | [14] 0.049

DHPS (UniProt M0R1T2)
inactive: [15] 0.11

DLG5 (UniProt Q8TDM6)
inactive: [1] -0.202 | [2] -0.12 | [7] 0.034 | [4] -0.115 | ibrutinib -0.056 | [8] -0.128

DOP1A (UniProt Q5JWR5)
inactive: [7] 0.002 | [9] 0.051 | [10] -0.005 | ibrutinib 0.047 | [15] 0.036 | [8] -0.038 | [16] -0.016

DMBT1 isoform 6 (UniProt Q9UGM3)
inactive: [1] 2.26 | [2] 0.311 | [4] -0.385 | [9] -0.038 | [10] -0.239 | [15] 2.46

DLC1 (UniProt Q96QB1)
inactive: [7] -0.078 | [3] -0.024 | [9] -0.116 | [10] -0.039 | IRAK-1-4 Inhibitor I -0.072 | ibrutinib 0 | ralimetinib 0.052 | [5] -0.01 | [16] 0.069 | [6] -0.031

DMD isoform 14 (UniProt P11532)
inactive: [7] -0.038 | [3] -0.007 | IRAK-1-4 Inhibitor I -0.119 | ibrutinib 0.25 | ralimetinib 0.078 | [5] 0.079 | [8] 0.121 | [16] 0.034 | [6] 0.09

DNAJC16 (UniProt Q9Y2G8)
inactive: [7] -0.069 | [3] -0.069 | IRAK-1-4 Inhibitor I -0.327 | ibrutinib -0.155 | ralimetinib -0.031 | [5] 0.251 | [15] 0.062 | [8] 0.258 | [16] 0.024 | [6] 0.329

DOP1B (UniProt Q9Y3R5)
inactive: [1] -0.124 | [2] -0.07 | [4] -0.024 | [13] -0.037 | [16] 0.078 | [14] -0.084

DNMT1 (UniProt P26358)
inactive: [7] -0.058 | [3] 0.044 | IRAK-1-4 Inhibitor I -0.007 | ibrutinib -0.146 | ralimetinib -0.09 | [5] -0.05 | [15] -0.085 | [16] 0.119 | [6] 0.143

DNASE1L1 (UniProt P49184)
inactive: [3] 0.007 | IRAK-1-4 Inhibitor I 0.098 | [13] -0.088 | ralimetinib 0.002 | [5] 0.155 | [15] -0.247 | [6] -0.081 | [14] -0.044

DNMT3B (UniProt Q9UBC3)
inactive: [1] -0.162 | [2] 0 | [3] 0.063 | [4] -0.053 | [9] 0.166 | [10] -0.18 | IRAK-1-4 Inhibitor I -0.065 | ralimetinib 0.163 | [5] -0.134 | [15] -0.121 | [6] 0.154

DLG1 isoform 3 (UniProt Q12959)
inactive: [7] -0.078 | [3] -0.093 | IRAK-1-4 Inhibitor I 0.001 | ibrutinib 0.1 | ralimetinib 0.111 | [5] -0.084 | [6] 0.125

DGLUCY isoform 2 (UniProt Q7Z3D6)
inactive: [16] 0.004

Taken from the listing (eight entries):
DMBT1 isoform 6 (UniProt Q9UGM3)
inactive: [1] 2.26 | [2] 0.311 | [4] -0.385 | [9] -0.038 | [10] -0.239 | [15] 2.46

DLC1 (UniProt Q96QB1)
inactive: [7] -0.078 | [3] -0.024 | [9] -0.116 | [10] -0.039 | IRAK-1-4 Inhibitor I -0.072 | ibrutinib 0 | ralimetinib 0.052 | [5] -0.01 | [16] 0.069 | [6] -0.031

DMD isoform 14 (UniProt P11532)
inactive: [7] -0.038 | [3] -0.007 | IRAK-1-4 Inhibitor I -0.119 | ibrutinib 0.25 | ralimetinib 0.078 | [5] 0.079 | [8] 0.121 | [16] 0.034 | [6] 0.09

DNAJC16 (UniProt Q9Y2G8)
inactive: [7] -0.069 | [3] -0.069 | IRAK-1-4 Inhibitor I -0.327 | ibrutinib -0.155 | ralimetinib -0.031 | [5] 0.251 | [15] 0.062 | [8] 0.258 | [16] 0.024 | [6] 0.329

DOP1B (UniProt Q9Y3R5)
inactive: [1] -0.124 | [2] -0.07 | [4] -0.024 | [13] -0.037 | [16] 0.078 | [14] -0.084

DNMT1 (UniProt P26358)
inactive: [7] -0.058 | [3] 0.044 | IRAK-1-4 Inhibitor I -0.007 | ibrutinib -0.146 | ralimetinib -0.09 | [5] -0.05 | [15] -0.085 | [16] 0.119 | [6] 0.143

DNASE1L1 (UniProt P49184)
inactive: [3] 0.007 | IRAK-1-4 Inhibitor I 0.098 | [13] -0.088 | ralimetinib 0.002 | [5] 0.155 | [15] -0.247 | [6] -0.081 | [14] -0.044

DNMT3B (UniProt Q9UBC3)
inactive: [1] -0.162 | [2] 0 | [3] 0.063 | [4] -0.053 | [9] 0.166 | [10] -0.18 | IRAK-1-4 Inhibitor I -0.065 | ralimetinib 0.163 | [5] -0.134 | [15] -0.121 | [6] 0.154

The list goes on:

DNAJC19, A0A2R8Y839
inactive: [15] -0.175 | [16] 0.207

DOCK5 (UniProt Q9H7D0)
inactive: [13] 0.149 | [14] 0.042

DGCR6L (UniProt Q9BY27)
inactive: [3] -0.059 | IRAK-1-4 Inhibitor I 0.025 | ralimetinib 0.148 | [5] 0.05 | [15] 0 | [16] 0.044 | [6] -0.067

DOCK11, A0A0J9YW64
inactive: [7] -0.106 | ibrutinib 0.036 | [15] 0.144

DNM2 isoform 4 (UniProt P50570)
inactive: erlotinib 0.099 | [11] 0.107 | [3] 0.072 | [9] -0.11 | [10] -0.011 | IRAK-1-4 Inhibitor I 0.133 | [13] -0.018 | ralimetinib 0.011 | [5] -0.027 | [12] -0.143 | [15] -0.07 | [8] 0.075 | [16] -0.08 | [6] 0.047 | [14] 0.058

DNLZ (UniProt Q5SXM8)
inactive: erlotinib -0.101 | [11] -0.036 | [3] -0.025 | IRAK-1-4 Inhibitor I -0.01 | [13] -0.155 | ralimetinib 0.031 | [5] -0.082 | [12] 0.047 | [15] -0.067 | [6] -0.109 | [14] -0.124

DNAJB9 (UniProt Q9UBS3)
inactive: erlotinib 0.014 | [11] 0 | [3] -0.019 | IRAK-1-4 Inhibitor I -0.416 | [13] -0.09 | ralimetinib -0.018 | [5] -0.047 | [12] -0.063 | [8] -0.013 | [16] -0.368 | [6] -0.045 | [14] -0.07

DNPEP (UniProt B9ZVU2)
inactive: erlotinib -0.035 | [11] -0.022 | [3] -0.014 | [9] -0.015 | [10] 0.063 | IRAK-1-4 Inhibitor I 0.037 | [13] 0.052 | ralimetinib 0.012 | [5] -0.055 | [12] 0.041 | [15] 0.009 | [8] -0.012 | [16] -0.029 | [6] -0.02 | [14] -0.077
